Reference: the supplement of paper PMC10849652
The list shows a part of the results.

Chains of the proteins cited; added tags and fusions are not shown. Lines headed by an entry give the natural chain unless they say otherwise; changes in a name come on top.
UniProt Q9NYQ8: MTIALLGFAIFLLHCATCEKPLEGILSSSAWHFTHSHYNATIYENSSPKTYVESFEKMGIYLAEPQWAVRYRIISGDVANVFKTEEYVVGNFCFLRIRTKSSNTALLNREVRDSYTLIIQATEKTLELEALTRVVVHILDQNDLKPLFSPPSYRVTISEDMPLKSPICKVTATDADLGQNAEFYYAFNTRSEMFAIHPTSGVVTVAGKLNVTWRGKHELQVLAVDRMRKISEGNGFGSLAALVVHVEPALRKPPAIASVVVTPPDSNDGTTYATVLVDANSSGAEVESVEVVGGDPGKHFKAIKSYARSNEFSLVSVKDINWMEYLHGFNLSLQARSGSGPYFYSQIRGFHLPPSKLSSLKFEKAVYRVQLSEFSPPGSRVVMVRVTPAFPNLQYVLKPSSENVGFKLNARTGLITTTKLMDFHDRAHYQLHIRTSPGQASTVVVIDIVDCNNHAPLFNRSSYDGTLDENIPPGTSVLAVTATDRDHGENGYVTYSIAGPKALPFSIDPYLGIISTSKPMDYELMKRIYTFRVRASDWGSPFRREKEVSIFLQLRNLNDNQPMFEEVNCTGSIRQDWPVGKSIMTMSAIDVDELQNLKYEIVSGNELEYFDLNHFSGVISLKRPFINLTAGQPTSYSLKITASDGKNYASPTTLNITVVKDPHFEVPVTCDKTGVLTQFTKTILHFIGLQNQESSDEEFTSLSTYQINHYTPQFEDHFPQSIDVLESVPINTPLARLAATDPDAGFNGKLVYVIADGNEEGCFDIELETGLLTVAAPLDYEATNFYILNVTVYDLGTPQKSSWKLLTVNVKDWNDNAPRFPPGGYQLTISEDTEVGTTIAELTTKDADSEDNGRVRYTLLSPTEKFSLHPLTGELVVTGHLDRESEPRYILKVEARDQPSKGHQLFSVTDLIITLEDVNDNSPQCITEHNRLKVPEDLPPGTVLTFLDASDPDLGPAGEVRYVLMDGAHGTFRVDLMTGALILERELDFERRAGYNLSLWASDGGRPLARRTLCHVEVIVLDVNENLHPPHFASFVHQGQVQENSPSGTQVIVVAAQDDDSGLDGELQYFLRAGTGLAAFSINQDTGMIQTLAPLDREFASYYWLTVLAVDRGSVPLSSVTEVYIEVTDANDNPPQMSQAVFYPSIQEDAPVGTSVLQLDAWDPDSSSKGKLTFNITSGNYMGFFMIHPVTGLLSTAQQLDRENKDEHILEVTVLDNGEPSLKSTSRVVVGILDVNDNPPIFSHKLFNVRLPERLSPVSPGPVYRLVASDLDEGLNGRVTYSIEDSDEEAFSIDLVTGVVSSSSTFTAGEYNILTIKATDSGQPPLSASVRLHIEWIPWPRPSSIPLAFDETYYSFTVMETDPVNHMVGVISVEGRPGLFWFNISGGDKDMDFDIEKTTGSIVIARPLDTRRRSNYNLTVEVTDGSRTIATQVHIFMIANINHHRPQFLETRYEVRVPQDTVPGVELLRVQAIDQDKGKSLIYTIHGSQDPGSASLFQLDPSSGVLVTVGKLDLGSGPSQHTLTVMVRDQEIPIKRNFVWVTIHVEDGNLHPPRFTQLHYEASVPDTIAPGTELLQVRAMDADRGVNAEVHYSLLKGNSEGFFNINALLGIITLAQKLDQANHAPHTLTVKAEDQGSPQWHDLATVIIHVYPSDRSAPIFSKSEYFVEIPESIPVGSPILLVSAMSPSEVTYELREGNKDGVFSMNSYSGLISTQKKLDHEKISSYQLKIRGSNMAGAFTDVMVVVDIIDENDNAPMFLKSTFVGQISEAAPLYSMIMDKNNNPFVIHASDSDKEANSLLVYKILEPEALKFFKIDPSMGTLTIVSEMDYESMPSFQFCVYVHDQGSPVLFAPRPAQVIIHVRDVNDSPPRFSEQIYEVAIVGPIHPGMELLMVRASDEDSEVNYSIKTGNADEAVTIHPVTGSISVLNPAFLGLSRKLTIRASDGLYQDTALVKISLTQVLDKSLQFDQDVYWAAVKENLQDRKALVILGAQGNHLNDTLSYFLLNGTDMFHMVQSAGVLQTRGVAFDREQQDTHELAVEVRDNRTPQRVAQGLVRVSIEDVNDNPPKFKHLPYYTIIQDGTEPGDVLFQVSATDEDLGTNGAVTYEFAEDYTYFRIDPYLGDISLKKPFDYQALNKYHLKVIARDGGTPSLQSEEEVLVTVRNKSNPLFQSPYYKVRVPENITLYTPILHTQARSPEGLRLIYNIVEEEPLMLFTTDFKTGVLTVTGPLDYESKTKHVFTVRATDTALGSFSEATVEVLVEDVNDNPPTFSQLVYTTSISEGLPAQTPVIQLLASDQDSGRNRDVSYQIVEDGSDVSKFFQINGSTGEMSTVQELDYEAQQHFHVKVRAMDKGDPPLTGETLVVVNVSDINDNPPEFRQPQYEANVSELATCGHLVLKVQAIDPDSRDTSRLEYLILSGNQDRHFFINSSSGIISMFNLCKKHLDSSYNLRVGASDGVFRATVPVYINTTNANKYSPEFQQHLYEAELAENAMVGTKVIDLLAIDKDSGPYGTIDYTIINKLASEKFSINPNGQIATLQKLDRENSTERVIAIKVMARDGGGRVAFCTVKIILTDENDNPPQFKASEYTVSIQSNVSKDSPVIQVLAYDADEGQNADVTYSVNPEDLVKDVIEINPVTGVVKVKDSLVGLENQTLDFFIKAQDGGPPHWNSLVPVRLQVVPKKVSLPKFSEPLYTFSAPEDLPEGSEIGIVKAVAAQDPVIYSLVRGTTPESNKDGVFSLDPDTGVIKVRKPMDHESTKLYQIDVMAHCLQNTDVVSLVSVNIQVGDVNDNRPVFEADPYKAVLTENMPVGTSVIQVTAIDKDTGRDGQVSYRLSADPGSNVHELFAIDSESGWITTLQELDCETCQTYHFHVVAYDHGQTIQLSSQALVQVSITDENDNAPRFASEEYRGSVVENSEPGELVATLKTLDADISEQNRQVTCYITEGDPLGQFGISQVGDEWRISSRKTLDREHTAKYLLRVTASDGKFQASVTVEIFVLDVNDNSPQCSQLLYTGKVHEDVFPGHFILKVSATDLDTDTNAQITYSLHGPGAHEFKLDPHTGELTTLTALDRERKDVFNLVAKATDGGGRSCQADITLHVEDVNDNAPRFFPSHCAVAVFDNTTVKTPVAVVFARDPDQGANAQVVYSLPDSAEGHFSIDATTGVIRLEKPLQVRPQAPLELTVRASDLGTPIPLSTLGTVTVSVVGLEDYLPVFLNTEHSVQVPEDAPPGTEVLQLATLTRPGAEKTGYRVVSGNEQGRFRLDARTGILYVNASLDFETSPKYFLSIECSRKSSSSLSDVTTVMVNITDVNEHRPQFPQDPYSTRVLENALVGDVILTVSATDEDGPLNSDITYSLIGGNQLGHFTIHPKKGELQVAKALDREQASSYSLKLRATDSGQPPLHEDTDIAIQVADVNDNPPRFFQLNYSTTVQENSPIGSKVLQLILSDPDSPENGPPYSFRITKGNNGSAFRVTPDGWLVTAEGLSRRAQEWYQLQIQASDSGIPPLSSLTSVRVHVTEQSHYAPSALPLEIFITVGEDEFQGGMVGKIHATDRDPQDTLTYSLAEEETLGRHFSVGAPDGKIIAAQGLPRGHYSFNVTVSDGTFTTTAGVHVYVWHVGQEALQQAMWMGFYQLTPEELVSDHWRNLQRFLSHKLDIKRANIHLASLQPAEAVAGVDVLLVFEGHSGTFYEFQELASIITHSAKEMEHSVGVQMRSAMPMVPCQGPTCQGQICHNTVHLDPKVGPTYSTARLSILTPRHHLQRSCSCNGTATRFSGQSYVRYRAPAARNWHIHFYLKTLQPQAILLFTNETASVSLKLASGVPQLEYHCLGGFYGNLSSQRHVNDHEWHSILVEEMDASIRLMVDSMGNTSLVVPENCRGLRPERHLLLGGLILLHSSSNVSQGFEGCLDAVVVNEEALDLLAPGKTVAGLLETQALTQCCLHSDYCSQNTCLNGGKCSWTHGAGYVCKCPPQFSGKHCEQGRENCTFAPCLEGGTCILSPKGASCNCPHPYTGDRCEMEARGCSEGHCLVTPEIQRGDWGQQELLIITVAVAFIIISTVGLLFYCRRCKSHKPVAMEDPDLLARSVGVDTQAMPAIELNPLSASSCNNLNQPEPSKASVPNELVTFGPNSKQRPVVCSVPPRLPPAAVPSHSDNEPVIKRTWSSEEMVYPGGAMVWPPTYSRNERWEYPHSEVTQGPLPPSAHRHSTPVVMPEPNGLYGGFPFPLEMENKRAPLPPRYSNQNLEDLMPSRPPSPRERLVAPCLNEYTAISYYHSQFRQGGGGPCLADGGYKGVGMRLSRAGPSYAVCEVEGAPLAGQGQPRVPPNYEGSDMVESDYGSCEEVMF
UniProt B1AJZ9: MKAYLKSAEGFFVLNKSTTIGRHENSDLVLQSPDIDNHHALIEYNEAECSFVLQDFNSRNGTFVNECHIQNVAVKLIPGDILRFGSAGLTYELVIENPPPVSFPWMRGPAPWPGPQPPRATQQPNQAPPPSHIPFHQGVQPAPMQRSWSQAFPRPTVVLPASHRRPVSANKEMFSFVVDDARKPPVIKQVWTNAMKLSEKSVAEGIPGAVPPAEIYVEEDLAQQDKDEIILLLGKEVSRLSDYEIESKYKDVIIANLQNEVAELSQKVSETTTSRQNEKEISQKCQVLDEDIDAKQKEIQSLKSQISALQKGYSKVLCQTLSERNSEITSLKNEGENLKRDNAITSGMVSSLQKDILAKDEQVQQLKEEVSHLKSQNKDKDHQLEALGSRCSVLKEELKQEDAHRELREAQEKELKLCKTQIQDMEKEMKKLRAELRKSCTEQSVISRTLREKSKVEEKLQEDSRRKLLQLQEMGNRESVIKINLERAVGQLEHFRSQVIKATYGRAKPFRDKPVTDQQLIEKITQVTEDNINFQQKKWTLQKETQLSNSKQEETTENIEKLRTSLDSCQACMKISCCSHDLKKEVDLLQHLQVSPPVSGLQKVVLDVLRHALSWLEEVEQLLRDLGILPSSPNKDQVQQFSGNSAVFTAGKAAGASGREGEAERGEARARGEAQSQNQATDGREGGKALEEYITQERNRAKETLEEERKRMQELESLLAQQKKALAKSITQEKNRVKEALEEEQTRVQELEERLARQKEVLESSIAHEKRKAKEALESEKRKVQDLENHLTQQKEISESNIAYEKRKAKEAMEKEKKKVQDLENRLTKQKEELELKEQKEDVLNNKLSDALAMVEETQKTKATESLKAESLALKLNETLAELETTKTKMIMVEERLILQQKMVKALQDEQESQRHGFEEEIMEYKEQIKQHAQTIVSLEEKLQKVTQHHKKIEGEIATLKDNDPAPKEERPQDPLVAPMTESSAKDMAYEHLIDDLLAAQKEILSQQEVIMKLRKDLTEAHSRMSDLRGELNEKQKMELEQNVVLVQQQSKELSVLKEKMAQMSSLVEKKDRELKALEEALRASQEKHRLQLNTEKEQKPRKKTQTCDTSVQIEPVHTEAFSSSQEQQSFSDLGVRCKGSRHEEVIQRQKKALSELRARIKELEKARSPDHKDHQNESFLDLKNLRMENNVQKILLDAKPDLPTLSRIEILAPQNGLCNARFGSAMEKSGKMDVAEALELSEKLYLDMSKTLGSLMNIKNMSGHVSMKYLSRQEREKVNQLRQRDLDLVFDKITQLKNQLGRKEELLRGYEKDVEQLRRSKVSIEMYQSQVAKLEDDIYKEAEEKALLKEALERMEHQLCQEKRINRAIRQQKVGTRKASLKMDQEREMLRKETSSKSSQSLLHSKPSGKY
UniProt Q96CD0: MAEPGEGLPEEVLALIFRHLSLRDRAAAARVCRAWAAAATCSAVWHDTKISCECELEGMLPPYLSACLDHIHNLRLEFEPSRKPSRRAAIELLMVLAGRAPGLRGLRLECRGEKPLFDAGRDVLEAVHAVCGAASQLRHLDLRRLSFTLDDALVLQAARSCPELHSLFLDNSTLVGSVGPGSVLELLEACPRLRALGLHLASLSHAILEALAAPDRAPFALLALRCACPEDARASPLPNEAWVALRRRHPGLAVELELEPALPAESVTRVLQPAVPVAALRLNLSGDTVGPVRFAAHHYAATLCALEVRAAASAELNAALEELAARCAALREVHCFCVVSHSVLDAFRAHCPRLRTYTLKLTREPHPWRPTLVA
UniProt Q13642: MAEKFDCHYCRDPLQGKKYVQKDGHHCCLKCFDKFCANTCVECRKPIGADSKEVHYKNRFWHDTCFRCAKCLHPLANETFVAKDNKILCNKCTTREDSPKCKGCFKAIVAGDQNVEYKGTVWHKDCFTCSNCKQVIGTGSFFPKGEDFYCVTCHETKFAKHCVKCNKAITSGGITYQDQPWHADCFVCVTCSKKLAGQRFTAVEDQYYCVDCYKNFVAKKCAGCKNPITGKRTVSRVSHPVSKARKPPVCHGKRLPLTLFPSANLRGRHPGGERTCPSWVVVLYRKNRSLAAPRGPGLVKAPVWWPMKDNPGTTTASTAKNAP

compound: CCN(CCCOc1ccc2c(Nc3cc(CC(=O)Nc4cccc(F)c4)[nH]n3)ncnc2c1)CCOP(=O)(O)O [barasertib]; assay: log2 fold change, soluble protein after heating vs DMSO (PISA); higher = thermal stabilisation; K562 cells, 10 uM, 30 min; active = over 0.2 and 3.5 SD of the protein, either way, in both replicates (recomputed)
Outline: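 K562 cells (2×10^6 cells/mL) were treated with 10 μM compound for 30 min, and aliquots were heated for 3 min over 48°C-58°C. Pooled aliquots were extracted in PBS with 0.5% NP-40 at 4°C, and the supernatant after 21,000xg for 90 min was measured by TMTpro 16plex LC-MS/MS with channel sums equalised. Reported thermal stability, relative to control samples and from duplicates, is a log2 fold change.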

log2 fold change, inactive:
FAT2 (UniProt Q9NYQ8) 0.069
FGGY isoform 3 (UniProt Q96C11) -0.142
FAXDC2 (UniProt Q96IV6) 0.18
FMNL1 isoform 3 (UniProt O95466) 0.169
FBXO44 (UniProt Q9H4M3) 0.038
FHAD1 isoform 3 (UniProt B1AJZ9) -0.015
FBXL8 (UniProt Q96CD0) -0.005
FNIP1 (UniProt Q8TF40) 0.011
FAM76A isoform 3 (UniProt Q8TAV0) 0.049
FBXO33 (UniProt Q7Z6M2) 0.078
FBXO9 (UniProt Q9UK97) 0.117
FITM2 (UniProt Q8N6M3) 0.04
FGB (UniProt P02675) -0.011
FHL1 isoform 4 (UniProt Q13642) 0.045
FGFR1OP2 (UniProt Q9NVK5) 0
FAM219A (UniProt Q8IW50) -0.114

Taken from the entries so far (5 entries):
log2 fold change, inactive:
FHAD1 isoform 3 (UniProt B1AJZ9) -0.015
FBXL8 (UniProt Q96CD0) -0.005
FNIP1 (UniProt Q8TF40) 0.011
FAM76A isoform 3 (UniProt Q8TAV0) 0.049
FBXO33 (UniProt Q7Z6M2) 0.078
